Results are given in words; binding and its absence hold for the method and conditions named. Binding seen in cells or lysates may run through a third protein. Some binding calls cover weakened binding; strength is not graded here.

The chains behind the UniProt entries cited, without tags or fusion partners.
UniProt Q01196: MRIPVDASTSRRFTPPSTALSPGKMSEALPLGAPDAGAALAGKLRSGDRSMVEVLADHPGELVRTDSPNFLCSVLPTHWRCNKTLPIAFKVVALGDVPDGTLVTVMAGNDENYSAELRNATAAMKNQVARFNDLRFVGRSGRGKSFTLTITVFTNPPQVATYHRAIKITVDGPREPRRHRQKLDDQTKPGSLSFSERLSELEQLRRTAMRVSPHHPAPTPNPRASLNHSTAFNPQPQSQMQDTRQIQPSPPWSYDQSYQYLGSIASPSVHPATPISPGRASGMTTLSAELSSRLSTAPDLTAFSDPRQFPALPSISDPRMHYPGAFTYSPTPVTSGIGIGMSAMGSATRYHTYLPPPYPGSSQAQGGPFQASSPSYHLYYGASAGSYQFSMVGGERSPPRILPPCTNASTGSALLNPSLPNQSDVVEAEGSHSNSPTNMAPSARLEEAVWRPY
UniProt P23769: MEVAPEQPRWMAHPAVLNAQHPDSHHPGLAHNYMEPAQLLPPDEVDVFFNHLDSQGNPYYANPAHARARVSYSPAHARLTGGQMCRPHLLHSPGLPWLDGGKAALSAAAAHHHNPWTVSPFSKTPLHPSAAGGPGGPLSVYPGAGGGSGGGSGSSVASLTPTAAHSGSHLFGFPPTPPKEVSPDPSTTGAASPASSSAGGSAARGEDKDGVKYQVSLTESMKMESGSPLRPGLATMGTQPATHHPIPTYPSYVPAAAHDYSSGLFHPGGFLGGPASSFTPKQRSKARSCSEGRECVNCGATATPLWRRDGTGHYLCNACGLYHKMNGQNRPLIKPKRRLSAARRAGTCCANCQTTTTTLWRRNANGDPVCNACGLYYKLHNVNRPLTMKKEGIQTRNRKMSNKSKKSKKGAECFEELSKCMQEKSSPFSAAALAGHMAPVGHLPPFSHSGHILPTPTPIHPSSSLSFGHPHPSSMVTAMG
UniProt P08047: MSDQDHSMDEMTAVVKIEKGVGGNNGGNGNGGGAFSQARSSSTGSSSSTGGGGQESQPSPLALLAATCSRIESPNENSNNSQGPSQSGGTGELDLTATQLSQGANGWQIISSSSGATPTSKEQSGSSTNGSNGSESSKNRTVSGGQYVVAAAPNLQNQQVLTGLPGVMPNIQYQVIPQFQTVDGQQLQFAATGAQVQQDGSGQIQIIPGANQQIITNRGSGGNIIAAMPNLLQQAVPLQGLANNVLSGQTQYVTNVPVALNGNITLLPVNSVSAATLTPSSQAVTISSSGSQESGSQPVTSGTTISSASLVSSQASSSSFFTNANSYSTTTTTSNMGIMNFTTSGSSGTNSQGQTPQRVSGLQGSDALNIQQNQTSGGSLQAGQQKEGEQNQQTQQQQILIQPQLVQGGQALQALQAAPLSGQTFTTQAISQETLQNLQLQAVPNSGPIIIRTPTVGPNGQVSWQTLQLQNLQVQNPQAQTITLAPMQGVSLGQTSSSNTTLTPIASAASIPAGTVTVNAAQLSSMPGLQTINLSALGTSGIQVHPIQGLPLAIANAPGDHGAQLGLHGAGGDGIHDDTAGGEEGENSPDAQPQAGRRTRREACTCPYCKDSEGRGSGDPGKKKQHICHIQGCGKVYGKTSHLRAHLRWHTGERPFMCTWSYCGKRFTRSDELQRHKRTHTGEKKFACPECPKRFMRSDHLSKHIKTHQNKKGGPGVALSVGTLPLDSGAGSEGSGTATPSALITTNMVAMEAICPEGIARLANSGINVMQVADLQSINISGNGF
UniProt P01106: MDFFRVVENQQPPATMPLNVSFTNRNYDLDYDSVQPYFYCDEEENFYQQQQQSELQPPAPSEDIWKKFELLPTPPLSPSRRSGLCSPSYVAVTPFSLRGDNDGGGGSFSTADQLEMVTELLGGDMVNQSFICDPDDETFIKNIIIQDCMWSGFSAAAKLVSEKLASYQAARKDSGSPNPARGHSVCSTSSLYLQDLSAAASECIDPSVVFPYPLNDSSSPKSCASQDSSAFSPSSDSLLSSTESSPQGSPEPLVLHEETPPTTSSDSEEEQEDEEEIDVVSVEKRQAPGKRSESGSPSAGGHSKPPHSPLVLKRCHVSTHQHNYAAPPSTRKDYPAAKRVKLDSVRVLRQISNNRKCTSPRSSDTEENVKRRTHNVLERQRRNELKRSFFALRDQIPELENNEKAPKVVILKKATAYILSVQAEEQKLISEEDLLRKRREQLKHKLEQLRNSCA

This is an account of results in paper PMC5589557.

Common to all, as to experiment: co-IP; endogenous proteins of HL-60 and HEL lysates; 1 mg protein with 5 ug antibody (anti-SP1, anti-RUNX1 or anti-GATA2) crosslinked to protein A/G-Dynabeads; co-IP buffer (PBS, 0.5% Triton X-100, 1 mM EDTA); irrelevant IgG as control; Western blot; anti-RUNX1 IP also in cells 48 h after siRNA against MYC or scramble siRNA
For orientation: A western blot detects proteins with antibodies after separation by electrophoresis.

Experiment [1] concerns the target RUNX1 (human (endogenous in HL-60 and HEL)) (UniProt Q01196).
Experiment [2] addresses GATA2 (human (endogenous in HL-60 and HEL)) (UniProt P23769).
For experiment [3], the target named is SP1 (human (endogenous in HL-60 and HEL)) (UniProt P08047).

GATA2 (from UniProt P23769 1-480): in experiment [1], the binding entry is reported as “binds”.
With MYC (from UniProt P01106 1-454), the binding result in experiment [2] and in experiment [1] was “binds” each time.
Consider “MYC (from UniProt P01106 1-454) (other; other documents disagree on this pair)”, for which, in experiment [3], the binding result was “binds”.
With SP1 (from UniProt P08047 1-785), the binding result in experiment [2] and in experiment [1] was “binds” each time.
